Paper doi:10.1101/2021.05.30.446361

Chains of the proteins cited; added tags and fusions are not shown. Lines headed by an entry give the natural chain unless they say otherwise; changes in a name come on top.
UniProt Q9Y265: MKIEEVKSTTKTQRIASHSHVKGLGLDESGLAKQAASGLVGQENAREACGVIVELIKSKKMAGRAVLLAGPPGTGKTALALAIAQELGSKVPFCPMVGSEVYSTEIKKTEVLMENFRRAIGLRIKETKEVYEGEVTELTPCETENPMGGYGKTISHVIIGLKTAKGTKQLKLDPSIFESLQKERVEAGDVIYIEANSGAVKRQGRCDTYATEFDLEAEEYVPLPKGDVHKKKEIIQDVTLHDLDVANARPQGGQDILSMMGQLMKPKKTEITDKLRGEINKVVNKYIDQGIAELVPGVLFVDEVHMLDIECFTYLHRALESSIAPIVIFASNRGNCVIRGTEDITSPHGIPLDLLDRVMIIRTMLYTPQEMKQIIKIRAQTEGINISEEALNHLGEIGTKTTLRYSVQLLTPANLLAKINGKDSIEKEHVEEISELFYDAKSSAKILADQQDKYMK
UniProt P01106: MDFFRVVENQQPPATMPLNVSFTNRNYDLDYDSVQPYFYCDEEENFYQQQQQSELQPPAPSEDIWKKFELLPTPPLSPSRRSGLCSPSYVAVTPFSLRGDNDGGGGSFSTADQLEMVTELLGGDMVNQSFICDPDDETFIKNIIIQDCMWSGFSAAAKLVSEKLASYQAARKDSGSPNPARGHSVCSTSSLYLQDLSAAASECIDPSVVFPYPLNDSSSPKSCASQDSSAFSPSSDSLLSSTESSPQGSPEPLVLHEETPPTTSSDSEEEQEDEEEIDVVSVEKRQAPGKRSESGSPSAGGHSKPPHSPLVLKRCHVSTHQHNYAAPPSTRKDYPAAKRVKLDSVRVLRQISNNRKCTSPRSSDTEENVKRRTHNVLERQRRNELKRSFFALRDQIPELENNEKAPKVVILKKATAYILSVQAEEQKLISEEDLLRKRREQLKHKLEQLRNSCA
UniProt Q9Y230: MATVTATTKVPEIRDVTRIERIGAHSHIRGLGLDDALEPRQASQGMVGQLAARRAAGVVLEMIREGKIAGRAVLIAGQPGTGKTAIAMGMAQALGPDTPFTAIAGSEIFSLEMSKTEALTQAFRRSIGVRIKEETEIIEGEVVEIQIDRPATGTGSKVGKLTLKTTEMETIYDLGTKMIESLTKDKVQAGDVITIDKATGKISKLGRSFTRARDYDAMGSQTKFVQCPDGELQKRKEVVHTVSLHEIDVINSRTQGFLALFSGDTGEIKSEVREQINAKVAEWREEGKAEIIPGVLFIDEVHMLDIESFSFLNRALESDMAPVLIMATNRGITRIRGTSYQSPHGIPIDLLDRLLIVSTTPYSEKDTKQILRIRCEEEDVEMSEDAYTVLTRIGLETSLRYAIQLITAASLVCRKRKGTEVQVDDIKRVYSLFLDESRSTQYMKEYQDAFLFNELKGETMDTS
UniProt Q6ZTU2: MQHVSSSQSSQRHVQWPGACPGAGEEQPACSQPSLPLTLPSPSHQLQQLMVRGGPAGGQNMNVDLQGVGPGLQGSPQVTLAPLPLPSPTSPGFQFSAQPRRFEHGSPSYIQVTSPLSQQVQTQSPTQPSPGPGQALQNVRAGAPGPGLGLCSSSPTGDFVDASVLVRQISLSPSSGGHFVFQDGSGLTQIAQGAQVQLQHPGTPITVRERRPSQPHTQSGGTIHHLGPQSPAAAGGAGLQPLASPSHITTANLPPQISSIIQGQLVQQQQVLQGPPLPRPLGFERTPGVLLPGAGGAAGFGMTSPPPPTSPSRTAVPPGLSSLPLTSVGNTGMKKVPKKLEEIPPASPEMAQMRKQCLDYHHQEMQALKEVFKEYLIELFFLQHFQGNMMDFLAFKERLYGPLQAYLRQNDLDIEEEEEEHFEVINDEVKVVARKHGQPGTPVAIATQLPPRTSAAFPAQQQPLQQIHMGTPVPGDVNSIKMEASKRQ
UniProt Q9H0E9: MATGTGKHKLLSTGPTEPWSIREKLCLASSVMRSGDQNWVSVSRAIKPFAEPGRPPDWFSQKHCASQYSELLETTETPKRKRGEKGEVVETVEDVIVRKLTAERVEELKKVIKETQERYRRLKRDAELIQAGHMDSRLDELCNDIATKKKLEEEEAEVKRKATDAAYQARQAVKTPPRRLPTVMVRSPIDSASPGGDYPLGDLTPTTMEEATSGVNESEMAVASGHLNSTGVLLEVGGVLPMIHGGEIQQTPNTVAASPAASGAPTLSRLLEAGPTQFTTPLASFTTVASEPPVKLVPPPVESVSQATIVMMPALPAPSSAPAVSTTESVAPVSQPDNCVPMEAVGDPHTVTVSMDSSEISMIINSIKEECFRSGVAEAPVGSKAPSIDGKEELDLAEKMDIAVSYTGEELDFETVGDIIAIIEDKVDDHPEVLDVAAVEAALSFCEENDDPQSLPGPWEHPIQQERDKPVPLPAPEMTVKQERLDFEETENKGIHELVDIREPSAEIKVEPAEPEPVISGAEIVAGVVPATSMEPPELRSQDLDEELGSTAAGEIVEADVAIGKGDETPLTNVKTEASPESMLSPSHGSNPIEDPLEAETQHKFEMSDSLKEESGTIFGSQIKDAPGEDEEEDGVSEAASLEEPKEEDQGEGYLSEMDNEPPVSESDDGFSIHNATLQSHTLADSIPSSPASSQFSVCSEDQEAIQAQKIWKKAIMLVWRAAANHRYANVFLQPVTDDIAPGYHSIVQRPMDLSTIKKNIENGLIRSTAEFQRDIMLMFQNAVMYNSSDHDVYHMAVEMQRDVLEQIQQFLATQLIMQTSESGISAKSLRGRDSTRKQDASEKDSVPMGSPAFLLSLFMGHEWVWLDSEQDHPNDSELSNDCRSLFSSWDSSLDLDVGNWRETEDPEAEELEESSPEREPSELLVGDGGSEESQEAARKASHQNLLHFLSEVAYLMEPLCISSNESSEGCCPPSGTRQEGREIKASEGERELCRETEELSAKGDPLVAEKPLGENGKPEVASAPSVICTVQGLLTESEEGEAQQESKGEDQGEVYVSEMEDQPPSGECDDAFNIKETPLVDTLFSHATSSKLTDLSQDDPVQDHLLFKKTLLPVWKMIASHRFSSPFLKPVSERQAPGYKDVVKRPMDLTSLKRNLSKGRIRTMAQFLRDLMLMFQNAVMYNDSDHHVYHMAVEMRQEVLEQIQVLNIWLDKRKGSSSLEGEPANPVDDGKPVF
UniProt P51532: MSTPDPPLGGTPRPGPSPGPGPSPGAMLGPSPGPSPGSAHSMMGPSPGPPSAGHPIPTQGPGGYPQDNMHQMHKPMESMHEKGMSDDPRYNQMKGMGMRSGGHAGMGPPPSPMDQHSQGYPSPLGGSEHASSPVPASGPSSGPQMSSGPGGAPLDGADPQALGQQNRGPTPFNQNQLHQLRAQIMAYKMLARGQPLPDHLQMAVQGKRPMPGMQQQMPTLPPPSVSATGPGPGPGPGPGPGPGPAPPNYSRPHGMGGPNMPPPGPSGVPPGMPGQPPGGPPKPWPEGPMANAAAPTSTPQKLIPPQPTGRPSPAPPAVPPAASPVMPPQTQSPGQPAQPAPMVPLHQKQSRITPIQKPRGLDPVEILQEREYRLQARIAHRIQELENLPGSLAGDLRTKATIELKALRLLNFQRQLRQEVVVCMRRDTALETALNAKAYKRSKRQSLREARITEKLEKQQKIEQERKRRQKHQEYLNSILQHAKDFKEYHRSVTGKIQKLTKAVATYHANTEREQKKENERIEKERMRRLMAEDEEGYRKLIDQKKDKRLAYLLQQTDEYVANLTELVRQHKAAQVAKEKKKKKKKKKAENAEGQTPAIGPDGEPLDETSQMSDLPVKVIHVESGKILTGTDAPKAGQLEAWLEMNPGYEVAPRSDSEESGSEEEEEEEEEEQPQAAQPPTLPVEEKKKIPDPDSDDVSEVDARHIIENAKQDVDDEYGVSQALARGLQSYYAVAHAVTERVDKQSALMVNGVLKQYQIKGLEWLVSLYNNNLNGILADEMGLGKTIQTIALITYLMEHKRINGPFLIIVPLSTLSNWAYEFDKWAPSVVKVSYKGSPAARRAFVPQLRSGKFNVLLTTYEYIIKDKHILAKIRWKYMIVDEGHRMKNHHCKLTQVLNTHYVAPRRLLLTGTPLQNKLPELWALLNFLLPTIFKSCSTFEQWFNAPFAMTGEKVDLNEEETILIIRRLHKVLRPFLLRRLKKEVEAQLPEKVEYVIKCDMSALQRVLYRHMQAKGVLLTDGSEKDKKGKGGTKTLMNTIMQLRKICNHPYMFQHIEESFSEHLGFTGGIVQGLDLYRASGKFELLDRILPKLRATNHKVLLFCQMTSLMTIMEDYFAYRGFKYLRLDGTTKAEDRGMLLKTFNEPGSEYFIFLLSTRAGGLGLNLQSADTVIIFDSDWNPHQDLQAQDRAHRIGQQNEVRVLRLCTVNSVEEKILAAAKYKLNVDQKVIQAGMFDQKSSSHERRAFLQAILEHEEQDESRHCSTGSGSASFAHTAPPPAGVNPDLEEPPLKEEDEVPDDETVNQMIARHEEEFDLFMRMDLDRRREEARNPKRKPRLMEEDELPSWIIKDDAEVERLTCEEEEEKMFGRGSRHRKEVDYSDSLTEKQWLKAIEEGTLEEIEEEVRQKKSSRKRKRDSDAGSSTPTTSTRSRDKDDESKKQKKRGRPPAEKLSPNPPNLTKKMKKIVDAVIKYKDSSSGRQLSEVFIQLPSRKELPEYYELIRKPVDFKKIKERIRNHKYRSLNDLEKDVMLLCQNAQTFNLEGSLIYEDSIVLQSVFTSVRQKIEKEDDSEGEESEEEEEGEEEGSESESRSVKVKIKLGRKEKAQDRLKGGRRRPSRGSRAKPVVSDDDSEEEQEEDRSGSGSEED

Legend:
Assay in all cases: co-IP
[1] = target: RuvBL1 (human (endogenous in HEK293T, Flp-In T-REx and HeLa cells)) (UniProt Q9Y265)
[2] = target: cMyc (human (endogenous in Flp-In T-REx cells)) (UniProt P01106)
[3] = target: RuvBL2 (TIP48) (human (endogenous in Flp-In T-REx, HEK293T and HeLa cells)) (UniProt Q9Y230)
[4] = target: FLAG-EP400NL deletion mutant Δ1-50 (human) (UniProt Q6ZTU2)
[5] = target: FLAG-EP400NL deletion mutant Δ246-260 (human) (UniProt Q6ZTU2)
[6] = target: FLAG-EP400NL deletion mutant Δ141-156 (human) (UniProt Q6ZTU2)
[7] = target: FLAG-EP400NL, full-length wild type (human) (UniProt Q6ZTU2)
[8] = target: FLAG-EP400NL deletion mutant Δ360-419 (human) (UniProt Q6ZTU2)
[9] = target: TAP-tagged EP400NL (EP400 N-terminal-Like) (human) (UniProt Q6ZTU2)
[10] = target: FLAG-EP400NL, full-length wild type (human) (UniProt Q6ZTU2); remark: listed apart in the source

Row | binding [1] | binding [2] | binding [3] | binding [4] | binding [5] | binding [6] | binding [7] | binding [8] | binding [9] | binding [10] | Substance
1 | binds | binds | binds | – | – | – | – | – | – | – | TAP-tagged EP400NL (EP400 N-terminal-Like) (from UniProt Q6ZTU2)
2 | – | – | – | binds | binds | binds | binds | binds | – | – | BRD8 (Bromodomain-containing protein 8) (from UniProt Q9H0E9 1-1235)
3 | – | – | – | – | – | – | binds | – | binds | – | RuvBL1 (from UniProt Q9Y265 1-456)
4 | – | – | – | binds | binds | binds | binds | binds | binds | binds | BRG1, core ATPase subunit of the human SWI/SNF chromatin remodelling complexes (from UniProt P51532 1-1647)

Like-named read-outs stand apart in the source and are kept apart here. No constants are given. Whether binding was seen depends on the method and setting. Binding seen in cells or lysates may run through a third protein. Binding calls can cover weak binding; strength is not graded here.
